Assay results taken from PubChem BioAssay AID2685 (National Center for Advancing Translational Sciences (NCATS), 2010).
The other results are listed elsewhere or left out. The main result of the screen is listed elsewhere. These columns were measured beside it and carry no call. The list favours compounds with an active or inconclusive main result. The note in brackets gives the kind of curve behind each potency; many fits are weak.

Assay: qHTS Assay for Lipid Storage Modulators in Drosophila S3 Cells;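 on cell number change: cells counted by Cell Tracker Red CMTPX staining in the red channel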
Conditions: BODIPY lipid droplet fluorescence, 18-24 h; for cell number change: measured here: cell count max response, cells fed with added oleic acid
Summary of the method: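 Laser-scanning cytometry quantifies lipid droplet accumulation (500–530 nm total intensity; droplet/cell object ratio) in oleic acid-fed (400 uM added) Drosophila S3 cells treated with a concentration series. 20 uM Triacsin C defined 100% inhibition.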

[1] = measured here: cell number channel AC50, cells fed with added oleic acid
[2] = measured here: lipid fluorescence (Fed channel) AC50, cells fed with added oleic acid

SMILES | cell number change | AC50 [1] | AC50 [2]
CS(=O)(=O)c1ccc2nc(NC(=O)C3CC(=O)N(c4ccc(F)cc4)C3)sc2c1 (stereo unspecified) | 41.7% | 20600 nM [rising, single point] | –
CCCCNC(=O)c1ccc2c(c1)ncn2C1CCCCC1 | 106% | 14600 nM [rising, partial curve] | 6510 nM [rising, single point]
CC1=C(C(=O)OC2CCCCCCC2)C(c2ccc(O)cc2)NC(=O)N1 (stereo unspecified) | 15.4% | – | 206 nM [falling, full curve, poor fit]
COc1ccc(C2SCCN2S(=O)(=O)c2ccc(NC(C)=O)cc2)cc1 (stereo unspecified) | -10.6% | – | 2910 nM [rising, full curve]
COc1ccc(Nc2nc(-c3ccccc3)c(C(=O)Nc3cccnc3)s2)cc1 | -32.7% | 5.8 nM [falling, full curve, poor fit] | –
CCOc1cc(S(=O)(=O)n2cc(-c3ccc(F)cc3)c(N)n2)cc(OCC)c1OCC | – | 1460 nM [rising, partial curve] | 1460 nM [rising, partial curve]
Cc1ccc(S(=O)(=O)NNC(=O)C(O)(c2ccccc2)c2ccccc2)cc1 | -10.6% | 184 nM [falling, full curve, poor fit] | 326 nM [falling, partial curve, poor fit]
Cc1c(F)cccc1NC(=O)CSCC(=O)Nc1ccccc1 | – | 580 nM [rising, full curve] | 517 nM [rising, full curve]
Cc1cc(=O)oc2ccc(OCC(=O)N(Cc3ccc(F)cc3)Cc3ccco3)cc12 | – | – | 130 nM [falling, full curve, poor fit]
CC1(C)Cc2c(c(N3CCOCC3)nc3sc(C#N)c(N)c23)CS1 | -7.65% | – | 6510 nM [rising, single point]
Cc1noc(C)c1COc1ccc(C(=O)NCC(c2c(F)cccc2Cl)N(C)C)cc1 (stereo unspecified) | – | 116 nM [falling, full curve, poor fit] | –
Cc1csc(NC(=O)CSc2nnc(C)n2Cc2ccco2)n1 | – | – | 4610 nM [rising, single point]
Cc1ccnn1-c1ccc(C(=O)N2CCCN(S(=O)(=O)c3ccc(F)cc3)CC2)cc1 | -7.78% | 1840 nM [rising, partial curve] | 2310 nM [rising, partial curve, poor fit]
COc1ccc(C(C(=O)NC2CCCCC2)N(Cc2cccnc2)C(=O)c2snc(C(N)=O)c2N)cc1 (stereo unspecified) | 31.7% | 36600 nM [rising, partial curve, poor fit] | –
CCc1c(C(=O)N2CCCN(C)CC2)csc1C | 9.12% | – | 580 nM [falling, partial curve]
COc1cccc(CNC(=O)CS(=O)(=O)Cc2nc(-c3ccc(C)cc3)oc2C)c1OC | 2.88% | – | –
CCn1c(CC(=O)Nc2cccc(OC)c2)nnc1SCC(=O)N1CCN(c2ccccc2)CC1 | -4.08% | – | 16400 nM [rising, single point]
CCCCc1nc2ccccc2c(NC(=O)CNC(C)(C)C)c1CCC | 10.2% | – | 326 nM [falling, single point]
O=C(CN1C(=O)c2ccccc2S1(=O)=O)Nc1ccc(S(=O)(=O)N2CCCCC2)cc1 | -11% | – | 4610 nM [falling, single point]
Cc1c(C(=O)O)[nH]c2c1C(=O)CC(c1ccc(C(C)(C)C)cc1)C2 (stereo unspecified) | -13.9% | – | 29100 nM [rising, partial curve, poor fit]
C[C@@H](C(=O)Nc1ccc2ccccc2c1)[C@@H]1C[C@@]1(C)[C@@H](NC(=O)OCc1ccccc1)c1ccccc1 | 26.3% | – | 20600 nM [falling, single point]
CCOC(=O)CSc1nc2sc3c(c2c(=O)n1-c1ccc(C)cc1)CCN(C)C3 | 56.3% | 14600 nM [rising, partial curve, poor fit] | –
CC(C)(C)OC(=O)N[C@@H](C(=O)OC(C)(C)C)c1ccc2ccccc2c1 | -15% | – | 116 nM [falling, single point]
Cc1oncc1C(=O)NC(C)C | -15.5% | – | 25900 nM [falling, partial curve]
Cc1[nH]c2ccccc2c1C(=O)/C=C/c1ccccc1Cl | 9.41% | – | 291 nM [rising, full curve]
CCOc1ccc(C(c2c(C)[nH][nH]c2=O)c2c(C)[nH][nH]c2=O)cc1OCC | -7.89% | – | 206 nM [falling, full curve, poor fit]
NC(=O)c1ccccc1NC(=O)Nc1cccc(Cl)c1 | 53.7% | 29100 nM [rising, single point] | 6510 nM [falling, single point]
Cc1ccc(CN(C(=O)c2cc(=O)c3cc(Cl)c(C)cc3o2)C2CCS(=O)(=O)C2)cc1 (stereo unspecified) | -12.6% | – | 23100 nM [falling, partial curve, poor fit]

As entered above:
AC50 [1], `Cc1c(F)cccc1NC(=O)CSCC(=O)Nc1ccccc1` reads 580 nM [rising, full curve]
cell number change, `CS(=O)(=O)c1ccc2nc(NC(=O)C3CC(=O)N(c4ccc(F)cc4)C3)sc2c1` (stereo unspecified) reads 41.7%
